# Test results reported in article PMC9308409 (Communications Biology, 2022).
# Amino acid sequences for entries named in this document (tags omitted).
# UniProt Q8NHX9, whole entry L11A/L12A: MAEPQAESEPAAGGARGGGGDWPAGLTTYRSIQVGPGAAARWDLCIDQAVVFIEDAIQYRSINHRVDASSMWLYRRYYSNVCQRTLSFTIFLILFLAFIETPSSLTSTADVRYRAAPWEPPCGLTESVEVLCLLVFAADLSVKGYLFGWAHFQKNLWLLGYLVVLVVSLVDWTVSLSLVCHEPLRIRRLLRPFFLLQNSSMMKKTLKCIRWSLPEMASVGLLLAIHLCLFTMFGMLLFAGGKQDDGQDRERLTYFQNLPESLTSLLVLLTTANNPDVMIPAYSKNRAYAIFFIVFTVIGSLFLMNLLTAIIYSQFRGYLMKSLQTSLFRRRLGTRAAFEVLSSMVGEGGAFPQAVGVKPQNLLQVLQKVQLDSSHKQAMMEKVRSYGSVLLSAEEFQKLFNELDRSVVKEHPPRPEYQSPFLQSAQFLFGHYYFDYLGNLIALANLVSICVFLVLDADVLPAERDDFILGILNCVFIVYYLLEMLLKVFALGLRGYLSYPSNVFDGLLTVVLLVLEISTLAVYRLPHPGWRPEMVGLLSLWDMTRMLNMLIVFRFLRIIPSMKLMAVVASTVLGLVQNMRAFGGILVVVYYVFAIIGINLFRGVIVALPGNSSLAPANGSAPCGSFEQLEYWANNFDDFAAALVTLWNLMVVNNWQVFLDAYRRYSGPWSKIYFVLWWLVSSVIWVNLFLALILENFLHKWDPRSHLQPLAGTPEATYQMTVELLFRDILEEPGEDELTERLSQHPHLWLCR
# Values joined by “and” are separate entries in the source; they are usually repeats but may differ in a detail not shown here. Equal values may be shown once.
# Target: T1, human TPC2 L11A/L12A (TPC2^PM) (Homo sapiens, UniProt Q8NHX9, L11A/L12A)
# T1 construct: FLAG (C); V5 (C); expressed in transfected cells; host or cells: HEK293
# Experiment: Whole cell patch-clamp of NAADP (microinjection)-induced TPC2^PM currents in HEK293 cells
# Format: cell-based
# Description: Whole cell patch-clamp recording of the NAADP (microinjection)-induced TPC2^PM currents was performed as we reported. […] The cells were visualized under an infrared differential interference contrast optics microscope (Zeiss). Currents were recorded by voltage ramps from −120 to +120 mV over 400 ms for every 2 s with a holding potential of 0 mV. After a whole cell recording configuration was achieved, an injection pipette was inserted into the cell and the baseline of the whole cell current was recorded. Microinjection of NAADP was performed as above in imaging analysis of NAADP-evoked Ca^2+ release. The NAADP-induced currents were obtained by subtraction of the baseline from NAADP injection-induced currents.
smiles,measurement,value
Nc1ccc(C(=O)Nc2cccc(-c3nc(N4CCOCC4)c4oc5ncccc5c4n3)c2)cn1 [YM201636],"I, current density of NAADP-induced whole cell TPC2^PM currents, individual cells",12.3231 pA/pF and 7.512 pA/pF and 11.1767 pA/pF and 10.1987 pA/pF and 6.932 pA/pF and 10.539 pA/pF
